Experimental data published in the supplement of paper PMC12823440, “Inhibitors supercharge kinase turnover through native proteolytic circuits” (Nature, 2025).
Some of the results follow. Hit calls seldom repeat between salt and free forms of one compound.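 In K562 cells expressing nanoluciferase-fused kinases, luminescence was recorded at 4 h intervals between 2 and 18 h, normalized as percent of control with DMSO at 100% and a positive control at 0%. A significant (2 sigma) signal drop marks a time point as decreased. The authors' rule for a hit is not shown and takes in more than the number of time points.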

Protein sequences, listed by entry. Tags and fused reporters are not part of them. Lines headed by an entry give the natural chain unless they say otherwise; changes in a name come on top.
UniProt P00519, whole entry: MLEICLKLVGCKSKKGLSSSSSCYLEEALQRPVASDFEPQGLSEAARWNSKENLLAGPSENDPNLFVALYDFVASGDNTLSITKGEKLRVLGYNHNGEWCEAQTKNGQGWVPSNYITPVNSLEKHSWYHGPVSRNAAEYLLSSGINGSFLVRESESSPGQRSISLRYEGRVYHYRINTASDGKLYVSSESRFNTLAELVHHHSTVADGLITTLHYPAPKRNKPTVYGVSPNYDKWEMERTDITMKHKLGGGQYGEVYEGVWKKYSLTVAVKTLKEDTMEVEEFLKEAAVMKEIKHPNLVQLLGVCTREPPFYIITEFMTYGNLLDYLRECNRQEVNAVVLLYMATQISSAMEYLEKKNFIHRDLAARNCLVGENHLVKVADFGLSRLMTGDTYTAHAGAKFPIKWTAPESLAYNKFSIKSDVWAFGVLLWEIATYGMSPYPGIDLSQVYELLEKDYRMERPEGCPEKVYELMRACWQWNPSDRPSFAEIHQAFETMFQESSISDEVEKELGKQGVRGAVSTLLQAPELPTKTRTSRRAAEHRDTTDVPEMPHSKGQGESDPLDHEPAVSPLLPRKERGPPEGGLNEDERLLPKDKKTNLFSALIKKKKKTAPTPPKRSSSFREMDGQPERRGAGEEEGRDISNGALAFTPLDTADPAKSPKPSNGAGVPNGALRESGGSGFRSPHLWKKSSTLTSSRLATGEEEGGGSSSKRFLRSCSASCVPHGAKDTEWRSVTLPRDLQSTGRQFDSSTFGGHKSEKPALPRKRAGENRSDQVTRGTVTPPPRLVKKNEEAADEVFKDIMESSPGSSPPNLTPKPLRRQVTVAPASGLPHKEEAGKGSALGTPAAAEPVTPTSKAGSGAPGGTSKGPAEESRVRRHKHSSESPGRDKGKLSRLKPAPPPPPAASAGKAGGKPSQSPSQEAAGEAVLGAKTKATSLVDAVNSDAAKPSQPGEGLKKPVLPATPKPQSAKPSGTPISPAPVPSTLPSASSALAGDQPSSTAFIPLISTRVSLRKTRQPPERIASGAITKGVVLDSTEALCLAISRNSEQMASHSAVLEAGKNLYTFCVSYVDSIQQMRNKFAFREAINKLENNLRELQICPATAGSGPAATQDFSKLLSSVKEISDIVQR
UniProt P31749: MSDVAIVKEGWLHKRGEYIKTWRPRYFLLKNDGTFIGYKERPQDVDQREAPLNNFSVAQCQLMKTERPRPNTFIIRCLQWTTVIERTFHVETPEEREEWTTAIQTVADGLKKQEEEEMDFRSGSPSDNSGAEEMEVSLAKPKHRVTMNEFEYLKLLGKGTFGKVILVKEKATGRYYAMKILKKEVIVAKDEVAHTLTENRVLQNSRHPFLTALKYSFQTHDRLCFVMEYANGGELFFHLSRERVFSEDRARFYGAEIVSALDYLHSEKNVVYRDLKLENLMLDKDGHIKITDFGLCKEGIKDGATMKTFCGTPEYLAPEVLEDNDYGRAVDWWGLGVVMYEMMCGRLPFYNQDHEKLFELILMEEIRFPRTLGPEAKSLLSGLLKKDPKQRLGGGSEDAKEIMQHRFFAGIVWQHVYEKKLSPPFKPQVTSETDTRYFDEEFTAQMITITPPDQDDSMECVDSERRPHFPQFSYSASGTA
UniProt Q9UM73: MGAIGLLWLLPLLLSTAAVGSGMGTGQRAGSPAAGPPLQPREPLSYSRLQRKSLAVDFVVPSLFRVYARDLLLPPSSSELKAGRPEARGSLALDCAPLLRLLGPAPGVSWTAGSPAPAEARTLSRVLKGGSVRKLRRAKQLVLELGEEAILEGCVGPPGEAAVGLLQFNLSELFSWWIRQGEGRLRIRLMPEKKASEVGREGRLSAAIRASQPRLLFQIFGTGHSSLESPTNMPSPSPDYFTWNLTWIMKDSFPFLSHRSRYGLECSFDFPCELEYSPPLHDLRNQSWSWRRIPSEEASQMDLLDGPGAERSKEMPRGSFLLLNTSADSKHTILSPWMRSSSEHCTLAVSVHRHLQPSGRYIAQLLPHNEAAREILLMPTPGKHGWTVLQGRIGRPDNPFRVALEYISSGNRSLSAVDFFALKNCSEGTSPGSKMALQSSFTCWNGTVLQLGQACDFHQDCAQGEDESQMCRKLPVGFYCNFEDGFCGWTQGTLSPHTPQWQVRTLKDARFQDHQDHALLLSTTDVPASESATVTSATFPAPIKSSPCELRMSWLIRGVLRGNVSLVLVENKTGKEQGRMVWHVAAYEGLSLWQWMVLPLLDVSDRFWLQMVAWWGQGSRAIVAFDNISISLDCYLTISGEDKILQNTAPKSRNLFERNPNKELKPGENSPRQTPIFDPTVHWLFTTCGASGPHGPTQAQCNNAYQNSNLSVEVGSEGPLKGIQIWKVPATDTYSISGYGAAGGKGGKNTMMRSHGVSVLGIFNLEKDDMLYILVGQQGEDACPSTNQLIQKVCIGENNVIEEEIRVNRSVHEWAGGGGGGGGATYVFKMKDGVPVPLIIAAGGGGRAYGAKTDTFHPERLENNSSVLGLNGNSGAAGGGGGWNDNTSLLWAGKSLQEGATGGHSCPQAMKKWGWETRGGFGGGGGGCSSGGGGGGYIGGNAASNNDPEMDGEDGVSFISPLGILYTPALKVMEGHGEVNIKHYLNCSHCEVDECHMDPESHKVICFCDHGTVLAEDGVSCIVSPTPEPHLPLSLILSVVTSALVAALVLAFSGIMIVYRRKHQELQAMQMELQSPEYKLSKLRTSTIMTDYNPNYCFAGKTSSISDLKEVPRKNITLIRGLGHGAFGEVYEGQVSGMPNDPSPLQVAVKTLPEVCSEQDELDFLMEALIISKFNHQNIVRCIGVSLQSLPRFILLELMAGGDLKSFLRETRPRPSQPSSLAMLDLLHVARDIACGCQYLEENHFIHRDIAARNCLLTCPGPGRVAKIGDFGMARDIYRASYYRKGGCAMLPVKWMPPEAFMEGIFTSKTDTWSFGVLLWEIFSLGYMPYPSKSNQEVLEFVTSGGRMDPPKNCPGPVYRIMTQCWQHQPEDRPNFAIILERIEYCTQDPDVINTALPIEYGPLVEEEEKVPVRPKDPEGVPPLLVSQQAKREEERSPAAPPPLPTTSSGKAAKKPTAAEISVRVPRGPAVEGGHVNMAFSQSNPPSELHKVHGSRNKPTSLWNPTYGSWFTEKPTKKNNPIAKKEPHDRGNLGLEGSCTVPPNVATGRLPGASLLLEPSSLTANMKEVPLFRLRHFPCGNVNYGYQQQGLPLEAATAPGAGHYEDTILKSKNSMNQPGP
UniProt O14965: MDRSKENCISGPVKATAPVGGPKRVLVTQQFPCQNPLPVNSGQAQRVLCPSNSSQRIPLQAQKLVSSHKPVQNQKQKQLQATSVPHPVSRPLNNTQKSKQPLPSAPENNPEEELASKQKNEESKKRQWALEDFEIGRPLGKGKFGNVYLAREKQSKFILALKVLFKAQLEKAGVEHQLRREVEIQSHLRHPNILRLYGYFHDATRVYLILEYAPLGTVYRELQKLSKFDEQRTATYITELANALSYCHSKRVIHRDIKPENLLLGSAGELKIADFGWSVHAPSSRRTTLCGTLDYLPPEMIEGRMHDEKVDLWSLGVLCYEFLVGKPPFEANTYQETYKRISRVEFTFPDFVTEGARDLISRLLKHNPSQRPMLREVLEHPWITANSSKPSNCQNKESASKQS
UniProt Q9UQB9: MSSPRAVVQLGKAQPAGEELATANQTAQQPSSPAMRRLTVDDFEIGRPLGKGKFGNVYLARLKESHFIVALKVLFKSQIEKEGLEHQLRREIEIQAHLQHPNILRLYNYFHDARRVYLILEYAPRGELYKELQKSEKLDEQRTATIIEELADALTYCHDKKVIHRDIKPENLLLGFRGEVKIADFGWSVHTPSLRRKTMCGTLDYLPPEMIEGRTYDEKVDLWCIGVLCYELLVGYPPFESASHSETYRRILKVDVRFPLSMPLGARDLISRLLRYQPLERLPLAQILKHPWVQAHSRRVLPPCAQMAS
UniProt P51451: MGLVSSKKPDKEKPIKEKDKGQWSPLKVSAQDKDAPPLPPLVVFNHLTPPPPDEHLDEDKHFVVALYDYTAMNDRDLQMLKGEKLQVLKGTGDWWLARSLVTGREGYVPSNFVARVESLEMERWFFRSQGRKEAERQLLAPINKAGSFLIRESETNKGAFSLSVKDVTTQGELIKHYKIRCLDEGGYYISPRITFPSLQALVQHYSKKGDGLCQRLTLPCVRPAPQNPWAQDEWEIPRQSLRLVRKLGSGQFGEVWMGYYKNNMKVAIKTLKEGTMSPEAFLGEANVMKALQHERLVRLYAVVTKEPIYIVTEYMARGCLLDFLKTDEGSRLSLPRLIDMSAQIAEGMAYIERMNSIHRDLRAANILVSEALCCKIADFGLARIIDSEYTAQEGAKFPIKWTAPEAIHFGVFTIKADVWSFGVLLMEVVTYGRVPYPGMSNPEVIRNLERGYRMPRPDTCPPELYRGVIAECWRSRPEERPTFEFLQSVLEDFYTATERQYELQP
UniProt Q06187: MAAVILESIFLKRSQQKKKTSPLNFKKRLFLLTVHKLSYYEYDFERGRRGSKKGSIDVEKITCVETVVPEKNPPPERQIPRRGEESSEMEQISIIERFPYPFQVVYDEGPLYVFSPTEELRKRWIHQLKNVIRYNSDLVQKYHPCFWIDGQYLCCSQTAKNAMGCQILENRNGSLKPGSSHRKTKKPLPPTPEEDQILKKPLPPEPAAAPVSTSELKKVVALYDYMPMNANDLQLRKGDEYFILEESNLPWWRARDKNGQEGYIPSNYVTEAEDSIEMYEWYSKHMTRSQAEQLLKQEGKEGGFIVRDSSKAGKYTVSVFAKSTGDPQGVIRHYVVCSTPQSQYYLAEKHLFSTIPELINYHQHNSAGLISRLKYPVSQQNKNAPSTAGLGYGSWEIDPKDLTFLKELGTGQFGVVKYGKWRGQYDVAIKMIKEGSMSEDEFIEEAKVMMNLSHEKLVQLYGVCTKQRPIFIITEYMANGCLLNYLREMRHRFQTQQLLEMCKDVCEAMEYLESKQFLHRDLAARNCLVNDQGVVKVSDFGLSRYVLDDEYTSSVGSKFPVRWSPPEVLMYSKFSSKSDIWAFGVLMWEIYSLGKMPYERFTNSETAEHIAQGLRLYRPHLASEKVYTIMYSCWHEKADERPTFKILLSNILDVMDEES
UniProt Q15131: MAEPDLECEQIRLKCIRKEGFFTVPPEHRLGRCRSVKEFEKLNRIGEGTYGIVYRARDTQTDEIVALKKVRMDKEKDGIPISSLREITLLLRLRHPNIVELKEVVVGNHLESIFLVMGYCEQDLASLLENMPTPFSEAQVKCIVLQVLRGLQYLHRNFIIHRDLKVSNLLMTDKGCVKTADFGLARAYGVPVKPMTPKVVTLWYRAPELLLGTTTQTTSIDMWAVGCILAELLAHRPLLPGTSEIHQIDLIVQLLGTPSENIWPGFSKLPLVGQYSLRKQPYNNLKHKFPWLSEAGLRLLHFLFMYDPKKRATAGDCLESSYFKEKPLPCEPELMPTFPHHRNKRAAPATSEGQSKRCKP
UniProt P11802: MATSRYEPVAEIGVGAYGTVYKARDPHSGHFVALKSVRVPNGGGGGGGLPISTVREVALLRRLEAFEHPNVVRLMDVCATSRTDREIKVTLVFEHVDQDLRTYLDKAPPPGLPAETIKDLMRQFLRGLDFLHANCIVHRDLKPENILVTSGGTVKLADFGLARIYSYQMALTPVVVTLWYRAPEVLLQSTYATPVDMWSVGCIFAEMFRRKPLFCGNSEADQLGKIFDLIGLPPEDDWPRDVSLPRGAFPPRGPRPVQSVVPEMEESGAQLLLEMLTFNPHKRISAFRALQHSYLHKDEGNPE
UniProt Q00535, whole entry, looked up: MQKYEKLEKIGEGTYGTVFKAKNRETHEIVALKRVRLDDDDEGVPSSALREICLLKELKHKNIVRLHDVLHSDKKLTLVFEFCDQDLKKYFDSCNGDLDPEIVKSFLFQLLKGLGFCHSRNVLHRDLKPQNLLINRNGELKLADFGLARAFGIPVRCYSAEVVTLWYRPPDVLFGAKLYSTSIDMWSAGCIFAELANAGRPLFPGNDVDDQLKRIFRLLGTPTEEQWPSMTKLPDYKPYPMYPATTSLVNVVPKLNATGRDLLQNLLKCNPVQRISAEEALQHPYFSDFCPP
UniProt Q00534, whole entry: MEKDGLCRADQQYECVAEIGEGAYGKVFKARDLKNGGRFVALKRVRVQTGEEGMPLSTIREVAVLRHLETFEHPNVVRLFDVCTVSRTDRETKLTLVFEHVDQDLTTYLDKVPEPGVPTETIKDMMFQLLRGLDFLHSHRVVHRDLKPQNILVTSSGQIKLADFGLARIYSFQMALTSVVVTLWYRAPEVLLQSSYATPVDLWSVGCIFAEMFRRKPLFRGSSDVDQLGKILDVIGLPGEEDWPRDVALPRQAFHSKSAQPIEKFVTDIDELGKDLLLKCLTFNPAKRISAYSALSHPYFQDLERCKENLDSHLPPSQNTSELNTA

Assays:
Test in all cases: kinase-Nluc reporter destabilization hit call (1 = scored as downregulated) (binary); higher = compound decreases kinase abundance
Settings in all cases: K562; 2-18 h
ABL1 = ABL1 (UniProt P00519)
AKT1 = AKT1 (UniProt P31749)
ALK = ALK (UniProt Q9UM73)
ARAF = ARAF (UniProt P10398)
AURKA = AURKA (UniProt O14965)
AURKB = AURKB (UniProt Q96GD4)
AURKC = AURKC (UniProt Q9UQB9)
BLK = BLK (UniProt P51451)
BMX = BMX (UniProt P51813)
BRAF = BRAF (UniProt P15056)
BRAF_V600E = system: BRAF_V600E
BTK = BTK (UniProt Q06187)
CAMK2A = CAMK2A (UniProt Q9UQM7)
CAMK2G = CAMK2G (UniProt Q13555)
CDK10 = CDK10 (UniProt Q15131)
CDK2 = CDK2 (UniProt P24941)
CDK3 = CDK3 (UniProt Q00526)
CDK4 = CDK4 (UniProt P11802)
CDK5 = CDK5 (UniProt Q00535)
CDK6 = CDK6 (UniProt Q00534)

Compound | kinase-Nluc reporter destabilization hit call (ABL1) | kinase-Nluc reporter destabilization hit call (AKT1) | kinase-Nluc reporter destabilization hit call (ALK) | kinase-Nluc reporter destabilization hit call (ARAF) | kinase-Nluc reporter destabilization hit call (AURKA) | kinase-Nluc reporter destabilization hit call (AURKB) | kinase-Nluc reporter destabilization hit call (AURKC) | kinase-Nluc reporter destabilization hit call (BLK) | kinase-Nluc reporter destabilization hit call (BMX) | kinase-Nluc reporter destabilization hit call (BRAF) | kinase-Nluc reporter destabilization hit call (BRAF_V600E) | kinase-Nluc reporter destabilization hit call (BTK) | kinase-Nluc reporter destabilization hit call (CAMK2A) | kinase-Nluc reporter destabilization hit call (CAMK2G) | kinase-Nluc reporter destabilization hit call (CDK10) | kinase-Nluc reporter destabilization hit call (CDK2) | kinase-Nluc reporter destabilization hit call (CDK3) | kinase-Nluc reporter destabilization hit call (CDK4) | kinase-Nluc reporter destabilization hit call (CDK5) | kinase-Nluc reporter destabilization hit call (CDK6)
C=CC(=O)N1CC[C@H](n2nc(C#Cc3cc(OC)cc(OC)c3)c3c(N)ncnc32)C1 [Futibatinib] (10 µM) | inactive: 0 | inactive: 0 | inactive: 0 | inactive: 0 | inactive: 0 | inactive: 0 | inactive: 0 | inactive: 0 | inactive: 0 | inactive: 0 | inactive: 0 | inactive: 0 | inactive: 0 | inactive: 0 | inactive: 0 | inactive: 0 | inactive: 0 | inactive: 0 | inactive: 0 | inactive: 0
Cc1ccc(F)c(NC(=O)Nc2ccc(-c3cccc4[nH]nc(N)c34)cc2)c1 [Linifanib] (2.5 µM) | active: 1 | inactive: 0 | active: 1 | inactive: 0 | inactive: 0 | inactive: 0 | inactive: 0 | inactive: 0 | inactive: 0 | inactive: 0 | inactive: 0 | inactive: 0 | inactive: 0 | inactive: 0 | active: 1 | inactive: 0 | inactive: 0 | inactive: 0 | inactive: 0 | inactive: 0
O=c1cc(-c2ccccc2)oc2c(O)c(O)ccc12 [7,8-Dihydroxyflavone] (10 µM) | inactive: 0 | inactive: 0 | inactive: 0 | inactive: 0 | inactive: 0 | inactive: 0 | inactive: 0 | inactive: 0 | inactive: 0 | inactive: 0 | inactive: 0 | inactive: 0 | inactive: 0 | inactive: 0 | inactive: 0 | inactive: 0 | inactive: 0 | inactive: 0 | inactive: 0 | inactive: 0
O=C1Nc2ccccc2/C1=C/c1ccc(F)cc1 (10 µM) | inactive: 0 | inactive: 0 | inactive: 0 | inactive: 0 | inactive: 0 | inactive: 0 | inactive: 0 | inactive: 0 | inactive: 0 | inactive: 0 | inactive: 0 | inactive: 0 | inactive: 0 | inactive: 0 | inactive: 0 | inactive: 0 | inactive: 0 | inactive: 0 | inactive: 0 | inactive: 0
COCCNCCc1cccc(Nc2ncc3c(n2)-c2ccccc2[C@H](c2ccccc2F)C3)c1 [Derazantinib] (2.5 µM) | inactive: 0 | inactive: 0 | inactive: 0 | inactive: 0 | inactive: 0 | inactive: 0 | inactive: 0 | inactive: 0 | inactive: 0 | inactive: 0 | inactive: 0 | inactive: 0 | inactive: 0 | inactive: 0 | inactive: 0 | inactive: 0 | inactive: 0 | inactive: 0 | inactive: 0 | inactive: 0
Cc1nc(-c2cnc(NC(C)C)n(C)c2=O)ccc1Oc1ccnc(-c2cnn(C)c2)c1 (2.5 µM) | inactive: 0 | inactive: 0 | inactive: 0 | inactive: 0 | inactive: 0 | inactive: 0 | inactive: 0 | inactive: 0 | inactive: 0 | inactive: 0 | inactive: 0 | inactive: 0 | inactive: 0 | inactive: 0 | inactive: 0 | inactive: 0 | inactive: 0 | inactive: 0 | inactive: 0 | inactive: 0
CC(C)n1cnc2c(NCc3cccc(C(F)(F)F)c3)ncnc21 [Longdaysin] (10 µM) | inactive: 0 | inactive: 0 | inactive: 0 | inactive: 0 | inactive: 0 | inactive: 0 | inactive: 0 | inactive: 0 | inactive: 0 | inactive: 0 | inactive: 0 | inactive: 0 | inactive: 0 | inactive: 0 | inactive: 0 | inactive: 0 | inactive: 0 | inactive: 0 | inactive: 0 | inactive: 0
Oc1ccc(-c2nc(-c3ccc(F)cc3)c(-c3ccncc3)[nH]2)cc1 (2.5 µM) | inactive: 0 | inactive: 0 | inactive: 0 | inactive: 0 | inactive: 0 | inactive: 0 | inactive: 0 | inactive: 0 | inactive: 0 | inactive: 0 | inactive: 0 | inactive: 0 | inactive: 0 | inactive: 0 | inactive: 0 | inactive: 0 | inactive: 0 | inactive: 0 | inactive: 0 | inactive: 0
Cc1cc(N2CCOCC2)cc2[nH]c(-c3c(NC[C@@H](O)c4cccc(Cl)c4)cc[nH]c3=O)nc12 (10 µM) | inactive: 0 | inactive: 0 | inactive: 0 | inactive: 0 | inactive: 0 | inactive: 0 | inactive: 0 | inactive: 0 | inactive: 0 | inactive: 0 | inactive: 0 | inactive: 0 | inactive: 0 | inactive: 0 | inactive: 0 | inactive: 0 | inactive: 0 | inactive: 0 | inactive: 0 | inactive: 0
Cc1c[nH]c(/C=C2\C(=O)Nc3ccccc32)c1CCC(=O)O (10 µM) | inactive: 0 | inactive: 0 | inactive: 0 | inactive: 0 | inactive: 0 | inactive: 0 | inactive: 0 | inactive: 0 | inactive: 0 | inactive: 0 | inactive: 0 | inactive: 0 | inactive: 0 | inactive: 0 | inactive: 0 | inactive: 0 | inactive: 0 | inactive: 0 | inactive: 0 | inactive: 0
COc1ccc(C=C(C#N)c2cccnc2)cc1OC (10 µM) | inactive: 0 | inactive: 0 | inactive: 0 | inactive: 0 | inactive: 0 | inactive: 0 | inactive: 0 | inactive: 0 | inactive: 0 | inactive: 0 | inactive: 0 | inactive: 0 | inactive: 0 | inactive: 0 | inactive: 0 | inactive: 0 | inactive: 0 | inactive: 0 | inactive: 0 | inactive: 0
Cc1c[nH]c2nccc(Oc3c(F)cc(Nc4cc(Cl)nc(N)n4)cc3F)c12 (10 µM) | inactive: 0 | inactive: 0 | inactive: 0 | inactive: 0 | inactive: 0 | inactive: 0 | inactive: 0 | inactive: 0 | inactive: 0 | inactive: 0 | inactive: 0 | inactive: 0 | inactive: 0 | inactive: 0 | inactive: 0 | inactive: 0 | inactive: 0 | inactive: 0 | inactive: 0 | inactive: 0
CCN(CCO)CCCOc1ccc2c(Nc3cc(CC(=O)Nc4cccc(F)c4)[nH]n3)ncnc2c1 [Barasertib-HQPA] (10 µM) | inactive: 0 | inactive: 0 | inactive: 0 | inactive: 0 | inactive: 0 | inactive: 0 | inactive: 0 | inactive: 0 | inactive: 0 | inactive: 0 | inactive: 0 | inactive: 0 | inactive: 0 | inactive: 0 | inactive: 0 | inactive: 0 | inactive: 0 | inactive: 0 | inactive: 0 | inactive: 0
CC(=O)NCC(=O)N1[C@@H]2CC[C@H]1c1ccc(Nc3ncc(C(F)(F)F)c(NC4CCC4)n3)cc12 (2.5 µM) | inactive: 0 | inactive: 0 | inactive: 0 | inactive: 0 | inactive: 0 | inactive: 0 | inactive: 0 | inactive: 0 | inactive: 0 | inactive: 0 | inactive: 0 | inactive: 0 | inactive: 0 | inactive: 0 | inactive: 0 | inactive: 0 | inactive: 0 | inactive: 0 | inactive: 0 | inactive: 0
CC(C)CC(=O)Nc1n[nH]c2c1CN(C(=O)C1CCN(C)CC1)C2(C)C (2.5 µM) | inactive: 0 | inactive: 0 | inactive: 0 | inactive: 0 | inactive: 0 | inactive: 0 | inactive: 0 | inactive: 0 | inactive: 0 | inactive: 0 | inactive: 0 | inactive: 0 | inactive: 0 | inactive: 0 | inactive: 0 | inactive: 0 | inactive: 0 | inactive: 0 | inactive: 0 | inactive: 0
FC(F)(F)c1ccc(CNc2ccc(Cc3c[nH]c4ncc(Cl)cc34)cn2)cc1 (10 µM) | inactive: 0 | inactive: 0 | inactive: 0 | inactive: 0 | inactive: 0 | inactive: 0 | inactive: 0 | inactive: 0 | inactive: 0 | inactive: 0 | inactive: 0 | inactive: 0 | inactive: 0 | inactive: 0 | inactive: 0 | inactive: 0 | inactive: 0 | inactive: 0 | inactive: 0 | inactive: 0
Cc1cccc(Cn2nc(C3CC3)c3c(NC(=O)c4cnc5cc(OCCN6CCN(C)CC6)ccn45)cccc32)n1 (10 µM) | inactive: 0 | inactive: 0 | inactive: 0 | inactive: 0 | inactive: 0 | inactive: 0 | inactive: 0 | inactive: 0 | inactive: 0 | inactive: 0 | inactive: 0 | inactive: 0 | inactive: 0 | inactive: 0 | inactive: 0 | inactive: 0 | inactive: 0 | inactive: 0 | inactive: 0 | inactive: 0
COc1cc(OC)cc(-c2cc3cnc(N)nc3nc2NC(=O)NC(C)(C)C)c1 (10 µM) | inactive: 0 | inactive: 0 | inactive: 0 | inactive: 0 | inactive: 0 | inactive: 0 | inactive: 0 | inactive: 0 | inactive: 0 | inactive: 0 | inactive: 0 | inactive: 0 | inactive: 0 | inactive: 0 | inactive: 0 | inactive: 0 | inactive: 0 | inactive: 0 | inactive: 0 | inactive: 0
Cc1c(Cn2c(C)nc3c(C(=O)O)cc(N4CCOCC4)cc32)cccc1C(F)(F)F (10 µM) | inactive: 0 | inactive: 0 | inactive: 0 | inactive: 0 | inactive: 0 | inactive: 0 | inactive: 0 | inactive: 0 | inactive: 0 | inactive: 0 | inactive: 0 | inactive: 0 | inactive: 0 | inactive: 0 | inactive: 0 | inactive: 0 | inactive: 0 | inactive: 0 | inactive: 0 | inactive: 0

Random excerpt: two compounds from above
Compound | kinase-Nluc reporter destabilization hit call (ABL1) | kinase-Nluc reporter destabilization hit call (AKT1) | kinase-Nluc reporter destabilization hit call (ALK) | kinase-Nluc reporter destabilization hit call (ARAF) | kinase-Nluc reporter destabilization hit call (AURKA) | kinase-Nluc reporter destabilization hit call (AURKB) | kinase-Nluc reporter destabilization hit call (AURKC) | kinase-Nluc reporter destabilization hit call (BLK) | kinase-Nluc reporter destabilization hit call (BMX) | kinase-Nluc reporter destabilization hit call (BRAF) | kinase-Nluc reporter destabilization hit call (BRAF_V600E) | kinase-Nluc reporter destabilization hit call (BTK) | kinase-Nluc reporter destabilization hit call (CAMK2A) | kinase-Nluc reporter destabilization hit call (CAMK2G) | kinase-Nluc reporter destabilization hit call (CDK10) | kinase-Nluc reporter destabilization hit call (CDK2) | kinase-Nluc reporter destabilization hit call (CDK3) | kinase-Nluc reporter destabilization hit call (CDK4) | kinase-Nluc reporter destabilization hit call (CDK5) | kinase-Nluc reporter destabilization hit call (CDK6)
COc1ccc(C=C(C#N)c2cccnc2)cc1OC (10 µM) | inactive: 0 | inactive: 0 | inactive: 0 | inactive: 0 | inactive: 0 | inactive: 0 | inactive: 0 | inactive: 0 | inactive: 0 | inactive: 0 | inactive: 0 | inactive: 0 | inactive: 0 | inactive: 0 | inactive: 0 | inactive: 0 | inactive: 0 | inactive: 0 | inactive: 0 | inactive: 0
C=CC(=O)N1CC[C@H](n2nc(C#Cc3cc(OC)cc(OC)c3)c3c(N)ncnc32)C1 [Futibatinib] (10 µM) | inactive: 0 | inactive: 0 | inactive: 0 | inactive: 0 | inactive: 0 | inactive: 0 | inactive: 0 | inactive: 0 | inactive: 0 | inactive: 0 | inactive: 0 | inactive: 0 | inactive: 0 | inactive: 0 | inactive: 0 | inactive: 0 | inactive: 0 | inactive: 0 | inactive: 0 | inactive: 0
